Assay results taken from patent publication US10039839B2, “Compounds that participate in cooperative binding and uses thereof” (Warp Drive Bio, Inc., priority 2015, dated 2018).
At least one compound was matched to its structure with a doubt left. Square brackets hold non-standard residues; d marks the D form. Peptide text beside a SMILES is read from it. MeBmt = C/C=C/C[C@@H](C)[C@@H](O)[C@H](NC)C(=O)O; NMeL = CN[C@@H](CC(C)C)C(=O)O; NMeV = CN[C@H](C(=O)O)C(C)C; dNMeA = CN[C@H](C)C(=O)O; Abu = CC[C@H](N)C(=O)O; Sar = CNCC(=O)O

The chains behind the UniProt entries cited, without tags or fusion partners.
UniProt P62937, whole entry, species assumed: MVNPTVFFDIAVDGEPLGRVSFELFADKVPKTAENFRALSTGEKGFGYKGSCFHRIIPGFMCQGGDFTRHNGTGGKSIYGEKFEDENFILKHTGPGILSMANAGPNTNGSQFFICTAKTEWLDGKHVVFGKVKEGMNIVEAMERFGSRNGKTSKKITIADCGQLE

Target: T1, Cyclophilin A (Homo sapiens, UniProt P62937)
T1 construct: made in house
Settings: read-out: IC50 value of CsA binding to Cyclophilin A
Procedure: This protocol utilizes Perkin Elmers AlphaLISA technology platform to detect cyclosporine analogues by measuring the inhibition of binding of biotinylated Cyclosporin A to FLAG tagged Cyclophilin A.
Add 20 uL of 6 nM Biotinylated CsA working stock to each well of the 96-well plate. Add 1 uL of test compound (100% DMSO) to each well of the plate using the Janus MTD head and P20 tips (except control wells). Add 1 uL of DMSO to negative control wells and 1 uL of 500 uM Cyclosporin A solution to positive control wells. In the dark, add 20 uL of combined Donor/Acceptor beads to each well. Incubate in the dark for 30 minutes at room temperature. […] Incubate in the dark for 60 minutes at room temperature.

C/C=C/C[C@@H](C)[C@@H](O)[C@H]1C(=O)N[C@@H](CC)C(=O)N(C)CC(=O)N(C)[C@H](C)C(=O)N[C@@H](C(C)C)C(=O)N(C)CC(=O)N[C@@H](C)C(=O)N[C@H](C)C(=O)N(C)[C@@H](CC(C)C)C(=O)N(C)[C@@H](CC(C)C)C(=O)N(C)[C@@H](C(C)C)C(=O)N1C [C27] (cyclo([MeBmt][Abu][Sar][dNMeA]V[Sar]A[dA][NMeL][NMeL][NMeV]))
IC50: < 2 µM
